{"source": "PubChem BioAssay AID652248 (Drosophila RNAi Screening Center, 2013)", "screen": "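Kinase and phosphatase regulators of cell lengthening and shape variety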 (primary screen)", "cells": "cultured Drosophila hemocytes", "reagents": "long dsRNA against Drosophila genes", "measurement": "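Automated microscopy of stained actin, tubulin and nuclei; single-cell shape measures assigned to five reference shape types, giving a score per dsRNA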", "direction": "elongated score: higher = more elongated bipolar cells; normal round score: higher = more normal rounded cells", "hit rule": "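Hits show a significant increase of elongated cells; higher rank given where elongated cells rose as other shape types fell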", "note": "Shown is a random part of 863 reagents. In the full data, 32 (3.7%) were called active. 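Calls also used reproducibility and a similarity ranking whose scores are not deposited; many active genes show only modest elongated scores.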 Unmarked entries are inactive. Not all columns of the deposit are shown. Not given: the amount of reagent, the time to read-out."}
{"gene": "lic (licorne)", "dsRNA": "DRSC20347", "elongated score, rep 1": 0.16, "normal round score, rep 1": -3.19}
{"gene": "wit (wishful thinking)", "dsRNA": "DRSC08741", "elongated score, rep 1": -0.53, "normal round score, rep 1": -0.43}
{"gene": "wit (wishful thinking)", "dsRNA": "DRSC26091", "elongated score, rep 1": -0.06, "normal round score, rep 1": -0.85}
{"gene": "CycA (Cyclin A)", "dsRNA": "DRSC09132", "elongated score, rep 1": -0.47, "normal round score, rep 1": -6.13}
{"gene": "CycA (Cyclin A)", "dsRNA": "DRSC11123", "elongated score, rep 1": 0.3, "normal round score, rep 1": -8.59}
{"gene": "dome (domeless)", "dsRNA": "DRSC19583", "elongated score, rep 1": 0.45, "normal round score, rep 1": -1.04}
{"gene": "Sdr (Secreted decoy of InR)", "dsRNA": "DRSC15517", "elongated score, rep 1": -0.53, "normal round score, rep 1": 0.22}
{"gene": "trc (tricornered)", "dsRNA": "DRSC11406", "elongated score, rep 1": 0.48, "normal round score, rep 1": -3.71}
{"gene": "trc (tricornered)", "dsRNA": "DRSC29426", "elongated score, rep 1": 4.78, "normal round score, rep 1": -2.61}
{"gene": "Erk7 (Extracellularly regulated kinase 7)", "dsRNA": "DRSC18127", "elongated score, rep 1": -0.01, "normal round score, rep 1": -1.38}
{"gene": "Erk7 (Extracellularly regulated kinase 7)", "dsRNA": "DRSC18227", "elongated score, rep 1": -0.53, "normal round score, rep 1": 0.8}
{"gene": "Erk7 (Extracellularly regulated kinase 7)", "dsRNA": "DRSC21895", "elongated score, rep 1": -0.39, "normal round score, rep 1": 0.02}
{"gene": "CASK", "dsRNA": "DRSC14588", "elongated score, rep 1": 1.68, "elongated score, rep 2": 0.61, "normal round score, rep 1": -0.8}
{"gene": "CASK", "dsRNA": "DRSC16597", "elongated score, rep 1": -0.38, "normal round score, rep 1": -0.35}
{"gene": "CASK", "dsRNA": "DRSC16598", "elongated score, rep 1": 0.08, "normal round score, rep 1": -0.14}
{"gene": "CASK", "dsRNA": "DRSC21917", "elongated score, rep 1": 1.53, "normal round score, rep 1": -1.58}
{"gene": "CASK", "dsRNA": "DRSC29057", "elongated score, rep 1": 3.77, "normal round score, rep 1": -1.98}
